No constants are given. Whether binding was seen depends on the method and setting. Some entries that bind do so weakly or less than the wild type.
T1: recombinant CD72 (UniProt P21854)
T1 sequence (looked up): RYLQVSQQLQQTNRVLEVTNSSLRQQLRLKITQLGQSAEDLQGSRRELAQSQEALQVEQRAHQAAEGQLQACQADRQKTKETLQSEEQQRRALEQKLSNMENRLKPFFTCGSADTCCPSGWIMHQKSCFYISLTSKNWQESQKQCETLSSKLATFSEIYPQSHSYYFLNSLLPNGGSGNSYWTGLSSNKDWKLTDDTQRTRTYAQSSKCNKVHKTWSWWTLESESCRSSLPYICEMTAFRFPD

Chains of the proteins cited; added tags and fusions are not shown. Residues count along the entry.
UniProt P13500, residues 24-99: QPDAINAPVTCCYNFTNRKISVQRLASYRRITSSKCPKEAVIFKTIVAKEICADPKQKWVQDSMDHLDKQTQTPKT


Key:
[1] = biological target: recombinant MCP-1 protein (UniProt P13500); assay: ELISA on recombinant protein
[2] = biological target: recombinant MCP-1 protein (UniProt P13500); assay: ELISA on recombinant MCP-1, HRP anti-human detection (Fig. 12)
recombinant CD72 [3] = biological target: T1, recombinant CD72; assay: ELISA on recombinant CD72 (Fig. 13A)
recombinant CD72 [4] = biological target: T1, recombinant CD72; assay: ELISA on recombinant CD72 (Fig. 13B)

Binder | binding [1] | binding [2] | binding (recombinant CD72 [3]) | binding (recombinant CD72 [4])
tetra-VH-IgG #22 (VH-CH1=MCP1#6, VH-CL=41BB#4) (bispecific antibody, V domains shown, not shown: a dimerising Fc or GST) V domain 1: EVQLLESGGGLVQPGGSLRLSCAASGFTFGSYWMHWVRQAPGKGLEWVASINRGSSQIYYADSVKGRFTISRDNSKNTLYLQMNSLRAEDTAVYYCARLMDGGSYYFDYWGQGTLVTVSS V domain 2: EVQLLESGGGLVQPGGSLRLSCAASGFTFGDYAMSWFRQAPGKGLEWVAVLSYDGSNTDYADSVKGRFTISRDNSKNTLYLQMNSLRAEDTAVYYCAKGPLILAAGNYWGQGTLVTVSS | binds | binds |  | 
tetra-VH-IgG #23 (VH-CH1=MCP1#6, VH-CL=CD40#5) (bispecific antibody, V domains shown, not shown: a dimerising Fc or GST) V domain 1: EVQLLESGGGLVQPGGSLRLSCAASGFTFGSYWMHWVRQAPGKGLEWVASINRGSSQIYYADSVKGRFTISRDNSKNTLYLQMNSLRAEDTAVYYCARLMDGGSYYFDYWGQGTLVTVSS V domain 2: EVQLLESGGGLVQPGGSLRLSCAASGFTFSSYTMDWVRQAPGKGLEWVSSISESGDTTDYADSVKGRFTISRDNSKNTLYLQMNSLRAEDTAVYYCARCSGGSCYSVNWGQGTLVTVSS | binds | binds |  | 
tetra-VH-IgG #24 (VH-CH1=MCP1#6, VH-CL=OX40#2) (bispecific antibody, V domains shown, not shown: a dimerising Fc or GST) V domain 1: EVQLLESGGGLVQPGGSLRLSCAASGFTFGSYWMHWVRQAPGKGLEWVASINRGSSQIYYADSVKGRFTISRDNSKNTLYLQMNSLRAEDTAVYYCARLMDGGSYYFDYWGQGTLVTVSS V domain 2: EVQLLESGGGLVQPGGSLRLSCAASGFTFSSYAMSWVRQAPGKGLEWVSGVSGGGGSTYYADSVRGRFTISRDNSKNTLYLQMNSLRAEDTAVYYCARGWDDINVWGQGTLVTVSS | binds | binds |  | 
VH-CD72-002-F04 (protein, not shown: small tags and cut ends) VH: EVQLLESGGGLVQPGGSLRLSCAASGFTFRSYAMTWVRQAPGKGLEWVANIKQDGSREYYVDSVKARFTISRDNSKNTLYLQMNSLRAEDTAVYYCAKGGNFAFDYWGQGTLVTVSS |  |  | binds | 
VH-CD72-001-C07 (protein, not shown: small tags and cut ends) VH: EVQLLESGGGLVQPGGSLRLSCAASGFTFSSYTMDWVRQAPGKGLEWVAVISSDGTNEYYADSVKGRSTISRDNSKNTLYLQMNSLRAEDTAVYYCARDRGYYFDYWGQGTLVTVSS |  |  |  | binds
